The list shows a part of the results. Further columns of the screen follow, without active or inactive calls. Compounds called inactive in the main read-out are mostly missing here. Potencies come from curve fits of mixed quality, noted in brackets.

The nature of this test: qHTS Assay to Find Inhibitors of Chronic Active B-Cell Receptor Signaling. The note with it: ABC-DLBCL IkBa-CBG/CBR reporter, luminescence ratio (green luciferase fused to IkBa over red control in TMD8 lymphoma cells), 4 h. In short, it runs like this: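 Cell line TMD8 (human ABC DLBCL), stably expressing tet-inducible CBG68-IkBa fusion and CBR; IMDM/0.5% FBS; cpd up to 46 uM; dox induction, 4 h, 37C/5% CO2; dual luminescence; green/red ratio; MG132 control.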
For orientation: qHTS replaces the single test concentration by a dilution series.

Where [1] appears, read: measured here: CBR red luminescence, cell number.
Where [2] appears, read: measured here: IkBa-CBG green luminescence.

One may read the AC50 as the concentration at which the activity in the assay is half-maximal. For `O=C(Nc1ccccc1)[C@@H]1[C@@H]2C(=O)N(c3ccc(F)cc3)C(=O)[C@@H]2[C@H]2C=CC=NN21`, under setting [1], the AC50 was 35.5 µM [falling, single point].
`CC1(C)Cc2c(sc(NC(=O)C(=O)N3CCCCC3)c2C(=O)O)CO1`: the AC50 under setting [1] was 35.5 µM [rising, partial curve, poor fit].
Turning to `O=C(OCC(=O)N1CCN(C(=O)c2ccco2)CC1)c1c(Cl)cccc1Cl`, the AC50 under setting [1] is 2.06 µM [rising, full curve, poor fit].
`COc1ccc2oc(C(=O)OCC(=O)N3CC(C)CC(C)C3)c(C)c2c1` (stereo unspecified): the AC50 under setting [1] is 0.651 µM [falling, partial curve].
As to `COC(=O)[C@@H]1CCCN1C(=O)CCc1nnc(CCC2CCCCC2)o1`, the AC50 under setting [1] was 0.316 µM [rising, full curve].
For `O=c1cc(-c2c(F)c(F)c(F)c(F)c2F)oc2c(F)c(F)c(F)c(F)c12`, under setting [1], the AC50 was 7.94 µM [falling, partial curve].
With `Cc1ccc2c(c1)c1c3n2CCN(C(=O)CN2CCN(C)CC2)C3CCC1` (stereo unspecified), under setting [1], the half-maximal activity concentration (AC50) is 15.8 µM [falling, single point].
Turning to `N#CC1CCCc2c1[nH]c1ccc([N+](=O)[O-])cc21` (stereo unspecified), the AC50 under setting [1] is 1.12 µM [rising, full curve, poor fit].
Turning to `CCC(C)NC(=S)Nc1ccc(C(=O)OC)cc1` (stereo unspecified), the AC50 under setting [1] was 14.1 µM [falling, single point].
As for `Cn1c(SCC(=O)Nc2ccccc2F)nnc1-c1cc2ccccc2o1`, the AC50 under setting [1] is 3.66 µM [rising, partial curve].
As to `COC(=O)c1cc(-c2ccc(C)cc2)n[nH]1`, the AC50 under setting [1] is 1.26 µM [rising, full curve, poor fit].
Regarding `COc1ccc(-c2nc(S(=O)(=O)c3ccccc3)c(N3CCOCC3)o2)cc1`, the AC50 under setting [1] is 0.0184 µM [rising, full curve, poor fit].
As to `CCCN(CCC)CC(O)Cn1cc(/C=C/C(=O)c2ccccc2)c2ccccc21` (stereo unspecified), the AC50 under setting [1] is 35.5 µM [falling, single point].
With `NC(=S)COc1ccccc1`, the AC50 under setting [1] is 6.31 µM [rising, single point].
Same read-out and setting: under `O=C(O)c1cccc(Nc2c3ccccc3nc3ccccc23)c1` stands 28.2 µM [falling, single point]; under `CC(C)(C)C1CCC2(CC1)C(C#N)=C(SCC(=O)NC1CCCCC1)NC(=O)C2C#N` (stereo unspecified), 35.5 µM [falling, single point].
In the case of `CC(O)CNCCOc1ccccc1-c1ccccc1` (stereo unspecified), the AC50 under setting [1] is 35.5 µM [falling, single point].
The same measure, in the same setting: in the case of `Cc1c(C2Nc3ccccc3NC3=C2C(=O)CC(C)(C)C3)cnn1C` (stereo unspecified) it was 3.66 µM [falling, full curve].
On to `CCOc1ccc(N2C(=O)NC(Cc3c[nH]c4ccccc34)C2=O)cc1` (stereo unspecified), for which the AC50 under setting [1] was 2.06 µM [falling, single point].
On to `O=C(O)c1cc(N/N=C/c2ccc(N3CCOCC3)cc2)ccc1Cl`, for which the AC50 under setting [1] was 17.8 µM [falling, partial curve, poor fit].
Take `O=C(c1ccc([N+](=O)[O-])cc1)N1CCN(Cc2ccccc2[N+](=O)[O-])CC1`: under setting [1], the half-maximal activity concentration (AC50) is 11.2 µM [falling, partial curve].
Take `Clc1ccc(N/N=C/c2cccs2)nn1`: the AC50 under setting [1] was 14.1 µM [rising, partial curve, poor fit].
The same measure, in the same setting: in the case of `COc1ccccc1C(=O)N/N=C/c1ccc2c(c1)OCO2` it was 17.8 µM [falling, partial curve]; in that of `CCN(CC)CCCC(C)NC(=O)c1c(NC(=O)c2ccccc2)sc2c1CCCC2` (stereo unspecified), 12.6 µM [falling, single point].
On to `COc1ccc(Oc2ccc(/C=N/NC(=O)c3cccnc3)cc2[N+](=O)[O-])cc1`, for which the AC50 under setting [1] was 12.6 µM [falling, single point].
In the case of `CN(C)CCCN1C(=O)c2cccc3c([N+](=O)[O-])ccc(c23)C1=O`, the AC50 is 6.51 µM [falling, full curve] under setting [1] and 23.1 µM [rising, partial curve] under setting [2].
With `CCc1cccc(C)c1NC(=O)N(C)C1CCCCC1`, the AC50 under setting [1] was 35.5 µM [rising, single point].
Consider `COC(=O)c1cc2ccsc2n1CC(=O)N1CCCc2ccccc21`, for which the AC50 under setting [1] is 35.5 µM [falling, single point].
On the same count and under the same terms, in the case of `Fc1cc(NC(=S)NCc2ccc(CNC(=S)Nc3ccc(Cl)c(F)c3)cc2)ccc1Cl` it was 35.5 µM [rising, single point].
On to `O=C(O)CC1=C(Nc2ccccc2)C(=O)N(c2ccccc2)C1c1ccc(Cl)cc1` (stereo unspecified), for which the AC50 under setting [1] was 12.6 µM [falling, partial curve].
For `N/C(=N\OC(=O)c1ccc(Cl)cc1[N+](=O)[O-])c1cccnc1`, the AC50 under setting [1] is 0.794 µM [rising, full curve, poor fit].
`Cc1ccc2nc(N3C(=O)C(O)=C(C(=O)c4cc5ccccc5o4)C3c3cccs3)sc2c1` (stereo unspecified): the half-maximal activity concentration (AC50) under setting [1] is 0.282 µM [falling, full curve].
For `Cc1ccc([N+](=O)[O-])cc1S(=O)(=O)Nc1ccc(-c2ccc(N3CCOCC3)nn2)cc1`, the half-maximal activity concentration (AC50) under setting [1] is 18.4 µM [falling, single point].
Regarding `COc1ccc(C(CNC(=O)COc2c(C)cc(C)cc2C)N2CCOCC2)cc1` (stereo unspecified), under setting [1], the AC50 was 0.651 µM [rising, full curve].
Regarding `COc1cc(-c2ccc3oc(-c4cccc(C)c4)c(C#CC4(O)CCCCC4)c3c2)cc(OC)c1OC`, under setting [1], the AC50 is 29.1 µM [rising, single point].
For the molecule `Cc1ccc(-n2c(SCC(=O)c3c(N)n(C)c(=O)n(C)c3=O)nc3sc4c(c3c2=O)CCCC4)c(C)c1`, under setting [1], the AC50 was 25.9 µM [rising, single point].
With `CN(c1ccccc1)S(=O)(=O)c1ccc(C(=O)N2CCCC(C(F)(F)F)C2)cc1` (stereo unspecified), the AC50 under setting [1] was 22.4 µM [falling, single point].
Take `O=C(NC1CCCCC1)c1cccc(OCc2ccccc2)c1`: the AC50 under setting [1] was 35.5 µM [falling, single point].
Same read-out and setting: under `O=C(Nc1ccccc1C(=O)NCC1CCCO1)c1ccco1` (stereo unspecified) stands 32.6 µM [rising, single point].
On the same count and under the same terms, in the case of `CC(C)Cc1nc(C(N)=O)c2[nH]c(=O)n(-c3ccc(F)cc3)c2n1` it was 16.4 µM [falling, partial curve, poor fit]; in that of `Nc1ccc2oc(C3CCCCC3)nc2c1`, 1.41 µM [rising, partial curve, poor fit].
As to `CCc1cc(-c2onc(C)c2-c2cscn2)c(O)cc1OC`, the AC50 reads like this: under setting [1], 35.5 µM [falling, single point]; under setting [2], 3.55 µM [falling, single point].
Take `Cc1ccc(-c2csc(NCCn3c(-c4ccncc4)nc4ccccc43)n2)cc1`: the AC50 under setting [1] is 0.447 µM [falling, full curve, poor fit].
`COc1ccc(/C=C/C(=O)O/N=C(\N)c2cccnc2)cc1OC`: the AC50 under setting [1] is 4.47 µM [rising, partial curve, poor fit].
Still for that read-out and setting: in the case of `Cc1noc(C)c1C(=O)N1CCOCC1` it was 29.1 µM [falling, single point]; in that of `Cc1ccc(CNCC(O)(c2ccccc2)c2ccc(F)cc2)cc1` (stereo unspecified), 7.08 µM [falling, partial curve, poor fit].
As to `CCOC(=O)C1CCCN(CC(=O)Nc2c(C(=O)OC)[nH]c3ccccc23)C1` (stereo unspecified), under setting [1], the AC50 was 6.31 µM [falling, single point].
Take `O=C(O)c1cccc(Nc2nc(-c3ccc([N+](=O)[O-])cc3)nc3ccccc23)c1`: the AC50 under setting [1] is 0.316 µM [rising, full curve, poor fit].
`Cc1cc(C(=O)COC(=O)c2ccc(NC(=O)CC#N)cc2)c(C)n1C1CC1`: the AC50 under setting [1] was 23.1 µM [falling, partial curve, poor fit].
In the case of `Cc1cc(SCC(=O)c2cc3ccccc3o2)nc2ccccc12`, under setting [1], the AC50 is 0.891 µM [falling, full curve].
Regarding `CCOC(=O)c1c(C)[nH]c(C)c1C(=O)COC(=O)/C=C/c1ccco1`, the AC50 under setting [1] was 14.6 µM [rising, partial curve, poor fit].
In the case of `CCn1c(COc2c(C)cccc2C)nnc1SCC(=O)N1CCN(c2ccccc2)CC1`, the AC50 under setting [1] is 35.5 µM [falling, single point].
As for `N#CC(Nc1ccccc1)c1ccccc1OCc1ccccc1` (stereo unspecified), the AC50 under setting [1] was 0.116 µM [rising, full curve, poor fit].
As to `COc1cccc(/C=C/c2ccc3cccc(O)c3n2)c1OC`, the AC50 was 15.8 µM [rising, partial curve] under setting [1] and 35.5 µM [falling, single point] under setting [2].
For `COc1ccc(-c2nn(-c3ccccc3)cc2/C=C2/SC(=S)N(CCCC(=O)O)C2=O)c(C)c1`, under setting [1], the AC50 is 0.562 µM [falling, full curve, poor fit].
The same measure, in the same setting: in the case of `CCSc1nnc(NC(=O)c2cc(C)on2)s1` it was 29.1 µM [falling, single point].
As to `CC(C)N(Cc1nc(-c2ccc(Cl)cc2)no1)C(=O)CCCN1C(=O)c2ccccc2C1=O`, the AC50 under setting [1] was 35.5 µM [falling, single point].
On the same count and under the same terms, under `O=C(Nc1cccnc1)Nc1ccccc1Cl` stands 20.6 µM [falling, partial curve, poor fit].
For `COc1cccc(/C=N/NC(=O)c2[nH]nc3c2CCc2ccccc2-3)c1`, the half-maximal activity concentration (AC50) under setting [2] is 20 µM [falling, single point].
`CCN1CCN(C(=O)c2ccc(-c3nc4ccccc4s3)s2)CC1`: the AC50 under setting [1] was 3.55 µM [rising, single point].
Consider `Cc1cc(C(=O)CN2C(=O)C(=O)N(C3CCCC3)C2=O)c(C)n1-c1ccc(F)cc1`, for which, under setting [1], the AC50 was 35.5 µM [falling, single point].
In the case of `N/C(=N\OC(=O)c1ccc(Br)cc1)c1ccccc1`, under setting [1], the AC50 is 35.5 µM [falling, single point].
With `CCN(CC(=O)Nc1ccc2c(c1)OC(F)(F)O2)Cc1nc2ccccc2c(=O)[nH]1`, the AC50 under setting [1] is 0.92 µM [falling, full curve, poor fit].

The values are drawn from PubChem BioAssay AID493014 (National Center for Advancing Translational Sciences (NCATS), 2011).
